Assay results: article PMC8819110
Results are given in words; binding and its absence hold for the method and conditions named. A result given as binding can be weak or reduced; the word gives no strength.

The chains behind the UniProt entries cited, without tags or fusion partners. Where a name states a change or a piece, a line headed by the entry shows the natural chain unless it says otherwise.
UniProt Q84UE7: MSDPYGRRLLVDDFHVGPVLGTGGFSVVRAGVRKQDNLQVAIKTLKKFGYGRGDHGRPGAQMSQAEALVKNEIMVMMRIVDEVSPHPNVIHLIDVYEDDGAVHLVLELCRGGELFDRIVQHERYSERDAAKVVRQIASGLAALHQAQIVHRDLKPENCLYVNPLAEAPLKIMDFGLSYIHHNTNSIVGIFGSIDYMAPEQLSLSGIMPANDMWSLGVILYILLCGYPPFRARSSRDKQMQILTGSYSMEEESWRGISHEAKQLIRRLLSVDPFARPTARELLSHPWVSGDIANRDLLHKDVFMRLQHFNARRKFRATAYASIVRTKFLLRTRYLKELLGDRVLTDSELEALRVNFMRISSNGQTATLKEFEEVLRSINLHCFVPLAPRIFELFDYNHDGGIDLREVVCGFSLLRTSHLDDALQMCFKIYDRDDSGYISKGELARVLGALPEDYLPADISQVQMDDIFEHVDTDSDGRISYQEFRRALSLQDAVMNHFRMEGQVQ

Target: PpCCaMK-BD (Physcomitrium patens CCaMK fused to the GAL4 DNA-binding domain) (Physcomitrium patens) (UniProt Q84UE7)
Assay: two-hybrid; GAL4 system in S. cerevisiae AH109; PpIPD3 on the activation domain, CCaMKs on the DNA-binding domain; growth on CSM-Leu-Trp-His-Ade at 30°C

binding: binds
Substance: PpIPD3-AD (Physcomitrium patens IPD3 fused to the GAL4 activation domain) (from UniProt A0A7I4CGX4)
